Test results published in paper PMC12005806.
No constants are given. Whether binding was seen depends on the method and setting. In cells and extracts the contact can be indirect. Some binding calls cover weakened binding; strength is not graded here. For some of these results: Tags and fused reporters may be left off the sequences shown.

Chains of the proteins cited; added tags and fusions are not shown.
UniProt Q8R4B8: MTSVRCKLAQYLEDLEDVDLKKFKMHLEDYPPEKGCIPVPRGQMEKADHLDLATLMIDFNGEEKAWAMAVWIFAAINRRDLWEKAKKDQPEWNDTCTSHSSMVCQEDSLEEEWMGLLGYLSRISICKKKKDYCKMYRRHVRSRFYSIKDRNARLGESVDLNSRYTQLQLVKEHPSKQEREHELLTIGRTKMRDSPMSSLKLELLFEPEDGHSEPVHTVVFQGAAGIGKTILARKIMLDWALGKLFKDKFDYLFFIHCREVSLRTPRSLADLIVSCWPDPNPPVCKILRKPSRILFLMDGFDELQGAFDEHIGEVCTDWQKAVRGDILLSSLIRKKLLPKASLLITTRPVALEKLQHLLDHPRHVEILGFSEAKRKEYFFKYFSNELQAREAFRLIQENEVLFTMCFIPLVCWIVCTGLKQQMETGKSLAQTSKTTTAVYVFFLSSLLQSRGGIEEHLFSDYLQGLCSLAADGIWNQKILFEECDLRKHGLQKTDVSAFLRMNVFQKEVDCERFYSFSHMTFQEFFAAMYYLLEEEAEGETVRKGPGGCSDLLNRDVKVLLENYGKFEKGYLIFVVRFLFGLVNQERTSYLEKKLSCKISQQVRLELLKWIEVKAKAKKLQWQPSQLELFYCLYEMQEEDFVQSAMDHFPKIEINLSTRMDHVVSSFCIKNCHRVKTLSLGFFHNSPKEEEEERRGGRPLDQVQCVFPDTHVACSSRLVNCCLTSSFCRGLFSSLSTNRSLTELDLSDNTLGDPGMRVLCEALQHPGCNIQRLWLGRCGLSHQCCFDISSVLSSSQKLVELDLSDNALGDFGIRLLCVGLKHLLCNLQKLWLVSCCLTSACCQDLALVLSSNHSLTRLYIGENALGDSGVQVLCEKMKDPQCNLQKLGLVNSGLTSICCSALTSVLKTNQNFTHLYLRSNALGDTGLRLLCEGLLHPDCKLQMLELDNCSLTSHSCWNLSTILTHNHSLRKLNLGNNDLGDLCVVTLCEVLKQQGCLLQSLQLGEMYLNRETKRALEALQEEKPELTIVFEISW

Key:
Flag-tagged NLRP3 = Flag-tagged NLRP3 (UniProt Q8R4B8); assay: co-IP; HEK293T cells co-transfected with Flag-tagged NLRP3 and V5-tagged Ufl1; 0.3% NP-40 lysis buffer; IP with Flag beads or with V5 antibody
Myc-tagged NLRP3 = Myc-tagged NLRP3 (UniProt Q8R4B8); assay: co-IP; HEK293T cells co-transfected with Myc-tagged NLRP3 or NLRP3 mutants and Ufl1 or Flag-tagged Ufl1 truncations; 0.3% NP-40 lysis buffer; IP with anti-Flag or anti-c-Myc beads for 3 h
[1] = target: T1, caspase-1 (co-immunoprecipitation of Figure S3C) (UniProt P29452); assay: co-IP; co-immunoprecipitation of Ufl1 with inflammasome components (Figure S3C); cells and constructs not told in the text shown
T1 sequence: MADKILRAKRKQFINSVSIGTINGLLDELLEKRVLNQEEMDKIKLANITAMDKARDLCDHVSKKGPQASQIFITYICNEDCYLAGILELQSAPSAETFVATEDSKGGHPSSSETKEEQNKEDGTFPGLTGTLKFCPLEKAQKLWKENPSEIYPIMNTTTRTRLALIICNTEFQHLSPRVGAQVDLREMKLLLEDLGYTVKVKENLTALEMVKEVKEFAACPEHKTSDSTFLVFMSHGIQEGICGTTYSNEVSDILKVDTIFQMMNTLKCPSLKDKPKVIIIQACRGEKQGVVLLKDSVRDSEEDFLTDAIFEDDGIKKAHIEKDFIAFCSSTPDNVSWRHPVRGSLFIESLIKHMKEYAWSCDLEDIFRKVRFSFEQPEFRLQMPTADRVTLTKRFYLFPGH

[2] = target: T2, ASC (co-immunoprecipitation of Figure S3C) (UniProt Q9EPB4); assay: as above
T2 sequence: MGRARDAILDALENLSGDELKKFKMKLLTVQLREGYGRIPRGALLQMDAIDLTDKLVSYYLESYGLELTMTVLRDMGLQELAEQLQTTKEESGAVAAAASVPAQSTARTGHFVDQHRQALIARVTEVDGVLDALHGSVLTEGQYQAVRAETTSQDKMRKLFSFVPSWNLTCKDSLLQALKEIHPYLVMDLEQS

B1: V5-tagged Ufl1 (protein, UniProt Q8CCJ3 1-793)
chain: MADAWEEIRRLAADFQRAQFAESTQRLSERNCIEIVNKLISQKQLEVVHTLDGKEYITPAQISKEMRDELHVRGGRVNIVDLQQVINVDLTHIESRVSDIIKSEKHVQMVLGQLIDENYLDQLSEEVNDKLQESGQVTVSELCKAYDLPGDFLTQALTQRLGRIINGHLDLDNRGVIFTEAFVARHKARIRGLFSAITRPTPVNSLVSKYGFQEQLLYSVLEDLVSTGRLRGTVVGGRQDKAVFVPDIYSRTQSTWVDSFFRQNGYLEFDALSRLGIPDAVNYIKKRYKNTQLLFLKATCVGQGLVDQVEASVEEAISSGTWVDISPLLPSSLSVEDAAMLLQQVMRPFGKLASAIVFSDTVVVSEKFITDCTGLFSERMHQKAEKEMKNNPVHLITEEDLKQISILESVNTSKKDKKDERRKKATEGSGSVRGGGGGNAREYKIKKTKKKGRKDEDSDDESQSSHGGKKKPDITFMFQDEIEDCLRKHIQDAPEEFISELAEYLIKPLNKMYLEVVRSVFMSSTSASGTGRKRTIKDLQEEVSNLYNNIRLFEKGMKYFADDTQTALTKHLLKTVCTDITNLMFNFLASDFLMAVEEPAAITSDIRKKILSKLTEETKVALTKLHNSLNEKSIEDFLSCLDSATEACDIMVKKGDKKRERQILFQHRQALCEQLKVTEDPALILHLTAVLLFQLSTHSMLHAPGRCVPQIIAFLHSKIPEDQHTLLVKYQGLVVKQLVSQNKKTGQGEDPSSDELDKEQHDVTNATRKELQELSLSIKDLVLKSRKSSVTEE
Flag-tagged NLRP3
  binding: binds

B2: 3 × Flag-tagged Ufl1 (protein, UniProt Q8CCJ3 1-793)
chain: MADAWEEIRRLAADFQRAQFAESTQRLSERNCIEIVNKLISQKQLEVVHTLDGKEYITPAQISKEMRDELHVRGGRVNIVDLQQVINVDLTHIESRVSDIIKSEKHVQMVLGQLIDENYLDQLSEEVNDKLQESGQVTVSELCKAYDLPGDFLTQALTQRLGRIINGHLDLDNRGVIFTEAFVARHKARIRGLFSAITRPTPVNSLVSKYGFQEQLLYSVLEDLVSTGRLRGTVVGGRQDKAVFVPDIYSRTQSTWVDSFFRQNGYLEFDALSRLGIPDAVNYIKKRYKNTQLLFLKATCVGQGLVDQVEASVEEAISSGTWVDISPLLPSSLSVEDAAMLLQQVMRPFGKLASAIVFSDTVVVSEKFITDCTGLFSERMHQKAEKEMKNNPVHLITEEDLKQISILESVNTSKKDKKDERRKKATEGSGSVRGGGGGNAREYKIKKTKKKGRKDEDSDDESQSSHGGKKKPDITFMFQDEIEDCLRKHIQDAPEEFISELAEYLIKPLNKMYLEVVRSVFMSSTSASGTGRKRTIKDLQEEVSNLYNNIRLFEKGMKYFADDTQTALTKHLLKTVCTDITNLMFNFLASDFLMAVEEPAAITSDIRKKILSKLTEETKVALTKLHNSLNEKSIEDFLSCLDSATEACDIMVKKGDKKRERQILFQHRQALCEQLKVTEDPALILHLTAVLLFQLSTHSMLHAPGRCVPQIIAFLHSKIPEDQHTLLVKYQGLVVKQLVSQNKKTGQGEDPSSDELDKEQHDVTNATRKELQELSLSIKDLVLKSRKSSVTEE
Myc-tagged NLRP3
  binding: binds

B3: Ufl1 (co-immunoprecipitation of Figure S3C) (protein, UniProt Q8CCJ3 1-793)
chain: MADAWEEIRRLAADFQRAQFAESTQRLSERNCIEIVNKLISQKQLEVVHTLDGKEYITPAQISKEMRDELHVRGGRVNIVDLQQVINVDLTHIESRVSDIIKSEKHVQMVLGQLIDENYLDQLSEEVNDKLQESGQVTVSELCKAYDLPGDFLTQALTQRLGRIINGHLDLDNRGVIFTEAFVARHKARIRGLFSAITRPTPVNSLVSKYGFQEQLLYSVLEDLVSTGRLRGTVVGGRQDKAVFVPDIYSRTQSTWVDSFFRQNGYLEFDALSRLGIPDAVNYIKKRYKNTQLLFLKATCVGQGLVDQVEASVEEAISSGTWVDISPLLPSSLSVEDAAMLLQQVMRPFGKLASAIVFSDTVVVSEKFITDCTGLFSERMHQKAEKEMKNNPVHLITEEDLKQISILESVNTSKKDKKDERRKKATEGSGSVRGGGGGNAREYKIKKTKKKGRKDEDSDDESQSSHGGKKKPDITFMFQDEIEDCLRKHIQDAPEEFISELAEYLIKPLNKMYLEVVRSVFMSSTSASGTGRKRTIKDLQEEVSNLYNNIRLFEKGMKYFADDTQTALTKHLLKTVCTDITNLMFNFLASDFLMAVEEPAAITSDIRKKILSKLTEETKVALTKLHNSLNEKSIEDFLSCLDSATEACDIMVKKGDKKRERQILFQHRQALCEQLKVTEDPALILHLTAVLLFQLSTHSMLHAPGRCVPQIIAFLHSKIPEDQHTLLVKYQGLVVKQLVSQNKKTGQGEDPSSDELDKEQHDVTNATRKELQELSLSIKDLVLKSRKSSVTEE
[1]
  binding: no binding
[2]
  binding: no binding
